The data set can be described thus: Oligosaccharide levels in whole breast milk of healthy mothers with low and high Fut2 activity (HPAEC-PAD). Details: species or system human. Conditions: for concentration in breast milk, high Fut2 activity group compared to low Fut2 activity group: at 30, 60 and 120 days post partum, t-test; for change of concentration in human breast milk with time: determined at 30, 60 and 120 days after infants' birth; for natural levels in the breast milk of mothers with high Fut2 activity: high Fut2 activity = 2′Fucosyllactose above 0.2 g/L. As for the experimental part:
An open, single-centre, 1 group study was conducted including 50 subjects (mothers) lasting 4 months. Only healthy volunteers were included.
All subjects complied with all the following inclusion criteria: 1. Gestational age between 37 and not above 42 weeks, 2. Baby to be enrolled between birth and V1, 3. Mother not younger than 18 years and not older than 40 years of age, 4. pre-pregnancy BMI of the mother between 18.5-29.5. Mothers willing to breastfeed for the first 4 months after giving birth.
Analysis of oligosaccharides (2′Fucosyllactose and Lacto-N-Neotetraose) was conducted in duplicates on a 10 mL sample of whole breast milk fully expressed mature milk, corresponding to a complete feed, and taken after 30, 60 and 120 days after infants' birth (post partum).
Briefly, 1 mL of well mixed whole breast milk was centrifuged for 20 min at 1700×g. About 0.1 mL of skimmed milk supernatant was diluted 10× with water and 0.01 mL of the thus diluted supernatant were taken as a sample for analysis.
Samples were analyzed by high performance ion exchange chromatography (HPAEC; Thermo, Dionex, Ca) equipped with a CarboPac PA1 column (Thermo, Dionex, Ca) for separation and a pulsed amperometric detector (PAD) for detection of carbohydrates. Oligosaccharide identification was done based on comparison of retention times to authentic standards and enzymatic hydrolysis of samples (e.g. fucosidase, galactosidase). Oligosaccharide quantification was done using external standard curves with pure authentic oligosaccharides.
Data collection points were 30, 60 and 120 days after infants' birth. Means with standard deviation were calculated for 2′Fucosyllactose (2′FL) and Lacto-N-neotetraose levels measured in breast milk grouped into samples with (i) low Fut2 activity (<0.2 g/L 2′FL) and (ii) high Fut2 activity (>0.2 g/L 2′FL). Statistical difference of 2′FL and LNnT levels between the two groups was assessed by t-test.
6′Sialyllactose (6′SL) and 3′Sialyllactose (3′SL) levels were determined in the breast milk from healthy mothers with low Fut2 activity (<0.2 g/L 2′FL) and high FUT2 activity (>0.2 g/L 2′FL) at 30, 60 and 120 days after infants' birth.
In particular, analysis of 6′Sialyllactose (6′SL) and 3′Sialyllactose (3′SL) was conducted in duplicates on a 10 mL sample of whole breast milk fully expressed mature milk, corresponding to a complete feed, and taken after 30, 60 and 120 days after infants' birth (post partum).
Means with standard deviation were calculated for 6′Sialyllactose (6′SL) and 3′Sialyllactose (3′SL) levels measured in breast milk grouped into samples with (i) low Fut2 activity (<0.2 g/L 2′FL) and (ii) high Fut2 activity (>0.2 g/L 2′FL). Statistical difference of 2′FL and LNnT levels between the two groups was assessed by t-test.

[1] abbreviates: high FUT2 activity (2′FL>0.2 g/L), 30 days post partum.
Setting [2] is: high FUT2 activity (2′FL>0.2 g/L), 60 days post partum.
Where [3] appears, read: high FUT2 activity (2′FL>0.2 g/L), 120 days post partum.
Setting [4] is: low FUT2 activity (2′FL<0.2 g/L), 60 days post partum.

Consider 4 molecules from US10821125B2, “Composition comprising FUT2-dependent oligosaccharides and lacto-N-neotetraose for use in promoting brain development and cognition” (NESTEC S.A., priority 2014, dated 2020).

`CC(=O)N[C@H]1[C@H]([C@H](O)[C@H](O)CO)O[C@@](O[C@H]2[C@@H](O)[C@@H](CO)O[C@@H](O[C@H]3[C@H](O)[C@@H](O)C(O)O[C@@H]3CO)[C@@H]2O)(C(=O)O)C[C@@H]1O` (stereo partly shown) [3′SL, 3′Sialyllactose]: the “concentration in breast milk, high Fut2 activity group compared to low Fut2 activity group” value is listed as “no significant differences” and the “change of concentration in human breast milk with time” value (“change of concentration” for short) is given as “decreases with time”.
Turning to `CC(=O)N[C@H]1[C@H]([C@H](O)[C@H](O)CO)O[C@@](OC[C@H]2O[C@@H](O[C@H]3[C@H](O)[C@@H](O)[C@H](O)O[C@@H]3CO)[C@H](O)[C@@H](O)[C@H]2O)(C(=O)O)C[C@@H]1O` [6′SL, 6′Sialyllactose], the “concentration in breast milk, high Fut2 activity group compared to low Fut2 activity group” value is “no significant differences” and the “change of concentration” value is “decreases with time”.
On to `CC(=O)N[C@H]1[C@H](O[C@H]2[C@@H](O)[C@@H](CO)O[C@@H](O[C@H]3[C@H](O)[C@@H](O)C(O)O[C@@H]3CO)[C@@H]2O)O[C@H](CO)[C@@H](O[C@@H]2O[C@H](CO)[C@H](O)[C@H](O)[C@H]2O)[C@@H]1O` (mixture of isomers) [LNnT, Lacto-N-Neotetraose], for which the “concentration in breast milk, high Fut2 activity group compared to low Fut2 activity group” value is listed as “significantly higher”; the “change of concentration” value is “decreases with time”; the “natural levels in the breast milk of mothers with high Fut2 activity” value was “up to 0.6 g/L”. Also, under setting [1], the “level in breast milk, mean” value is listed as 0.26 g/L. Further, the “level in breast milk, mean” value under setting [2] is given as 0.17 g/L. Under setting [3], the “level in breast milk, mean” value came to 0.11 g/L. Moreover, the “level in breast milk, mean” value (low FUT2 activity (2′FL<0.2 g/L), 30 days post partum) is 0.19 g/L. Also, the “level in breast milk, mean” value under setting [4] came out at 0.11 g/L. Moreover, for the setting “low FUT2 activity (2′FL<0.2 g/L), 120 days post partum”, the “level in breast milk, mean” value is 0.07 g/L.
Turning to `C[C@@H]1O[C@@H](O[C@H]2[C@H](O[C@H]3[C@H](O)[C@@H](O)C(O)O[C@@H]3CO)O[C@H](CO)[C@H](O)[C@@H]2O)[C@@H](O)[C@H](O)[C@@H]1O` (stereo partly shown) [2′FL, 2′Fucosyllactose], the “change of concentration” value was “decreases with time” and the “natural levels in the breast milk of mothers with high Fut2 activity” value was “up to 5 g/L”. The “level in breast milk, mean” value under setting [1] came to 2.2 g/L. Moreover, the “level in breast milk, mean” value (high FUT2 activity (2′FL>0.2 g/L), 30 days post partum, listed as 2′Fucosyllactose) is “about 2.2 g/L”. Besides, the “level in breast milk, mean” value under setting [2] stood at 1.8 g/L. Further, under “high FUT2 activity (2′FL>0.2 g/L), 60 days post partum, listed as 2′Fucosyllactose”, the “level in breast milk, mean” value is “about 1.8 g/L”. The “level in breast milk, mean” value under setting [3] was determined as 1.4 g/L. Moreover, under “high FUT2 activity (2′FL>0.2 g/L), 120 days post partum, listed as 2′Fucosyllactose”, the “level in breast milk, mean” value is given as “about 1.4 g/L”. Further, the “level in breast milk, mean” value under setting [4] is reported as 0.02 g/L.
